No constants are given. Whether binding was seen depends on the method and setting. Some results given as binding are weak or reduced against the parent protein; the word gives no strength.
Target: recombinant His-RUVBL2 (UniProt Q9WTM5)
Assay: co-purification by the His tag of one subunit (Ni-NTA) + SEC; RUVBL1 (no His-tag) and His-RUVBL2 co-expressed in E. coli; Ni-NTA agarose, then Superdex S200; fractions of about 300-600 kDa collected

By UniProt entry, the sequences of proteins in these tests, tags left out.
UniProt Q9WTM5: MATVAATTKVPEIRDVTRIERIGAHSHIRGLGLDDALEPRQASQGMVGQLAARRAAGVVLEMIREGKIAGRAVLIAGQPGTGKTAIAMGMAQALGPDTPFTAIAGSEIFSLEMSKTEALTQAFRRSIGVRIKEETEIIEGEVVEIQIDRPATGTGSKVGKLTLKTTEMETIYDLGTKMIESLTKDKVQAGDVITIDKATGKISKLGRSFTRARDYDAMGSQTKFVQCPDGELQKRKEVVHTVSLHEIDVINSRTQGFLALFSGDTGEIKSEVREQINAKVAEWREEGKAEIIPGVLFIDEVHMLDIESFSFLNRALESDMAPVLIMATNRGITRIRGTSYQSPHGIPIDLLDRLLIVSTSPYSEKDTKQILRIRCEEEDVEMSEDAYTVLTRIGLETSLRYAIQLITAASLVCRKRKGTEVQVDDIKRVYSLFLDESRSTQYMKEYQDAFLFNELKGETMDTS
UniProt P60122: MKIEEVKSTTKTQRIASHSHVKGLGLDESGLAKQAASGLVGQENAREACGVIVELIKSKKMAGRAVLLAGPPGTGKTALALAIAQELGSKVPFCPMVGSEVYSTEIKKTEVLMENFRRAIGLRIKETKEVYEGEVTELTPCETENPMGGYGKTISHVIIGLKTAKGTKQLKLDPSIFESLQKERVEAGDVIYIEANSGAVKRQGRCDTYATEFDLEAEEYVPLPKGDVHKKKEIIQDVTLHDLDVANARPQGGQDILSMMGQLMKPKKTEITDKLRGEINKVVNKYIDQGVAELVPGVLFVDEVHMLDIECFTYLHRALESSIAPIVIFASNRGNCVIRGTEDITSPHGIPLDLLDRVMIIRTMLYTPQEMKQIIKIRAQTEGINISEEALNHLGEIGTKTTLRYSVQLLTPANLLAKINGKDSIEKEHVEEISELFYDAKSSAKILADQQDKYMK

binding: binds
Substance: recombinant RUVBL1 (no His-tag) (from UniProt P60122 1-456)
